Assay [1] has as its target I53_dn5A pentamer. Kind of assay: nanoparticle assembly grade, Table 3.
In assay [2] the target is I53_dn5A pentamer. Kind of assay: in vitro nanoparticle assembly, SEC.

No constants are given. Whether binding was seen depends on the method and setting. Some binding calls cover weakened binding; strength is not graded here.

B1: I53_dn5B_2gly trimer (designed binder)
chain: EEAELAYLLGELAYKLGEYRIAIRAYRIALKYDNLTAEAWYNLGNAYYKQGRYREAIEYYQKALELDPNNAEAWYNLGNAYYERGEYENATEYYRKALRLDPNNADAMQNLLNAKMREELEEQKLISEEDLHHHHHH
modifications: N-linked glycans at PNGS 32-YDNLT-36 and 89-NAT-91
Turning to B1, the binding entry with I53_dn5A pentamer [1] and with I53_dn5A pentamer [2] was “binds” each time.

These data come from US20240042018A1.
